# Source: PubChem BioAssay AID248 (DTP/NCI, 2004)
# The list does not hold the whole screen: it gathers tests that were run many times, whatever their T/C, doses with no T/C, and many T/C values between a quarter and a half above the control. Further doses and runs are listed elsewhere. T/C: endpoint of the treated group in % of that of the vehicle group. Some entries give survivors of the animals treated and no T/C: the source files T/C as zero there, which appears to mark a toxic dose or a test without result, not a measured value. Some doses without a T/C left all or most animals alive at the check, yet need not have been tolerated: survival well below the control is almost never listed, so the zero probably covers shortened survival too. Survivors were counted at the toxicity check, usually on the fifth day, unless a day is given; later deaths do not show. Schedules are NCI's codes, taken here to give the interval after Q, in days (D) or hours (H), and the number of doses after X. Some schedules carry Z or #; the key to these is not given. For survival time, this PubChem deposit counts one and a half times the control or more as active, and values a quarter to a half above the control carry no call in these data; other NCI protocols may use other cut-offs. Some entries hold several experiments; their values stand side by side, smallest first.
# System: L1210 leukemia ip in BDF1 mice, survival T/C
# Assay: NCI In Vivo Anticancer Drug Screen. Data for tumor model L1210 Leukemia (intraperitoneal) in B6D2F1 (BDF1) mice
# Settings: higher T/C = longer survival
# [1] = T/C endpoint: mean survival time, dose: 150.0 mg/kg/injection, schedule: Q01DX001 (ip), vehicle: saline
# [2] = T/C endpoint: mean survival time, dose: 200.0 mg/kg/injection, schedule: Q01DX009 (ip), vehicle: saline
# [3] = T/C endpoint: mean survival time, dose: 200.0 mg/kg/injection, schedule: Q04DX003 (ip), vehicle: saline
# [4] = T/C endpoint: mean survival time, dose: 400.0 mg/kg/injection, schedule: Q01DX009 (ip), vehicle: saline
# [5] = T/C endpoint: mean survival time, dose: 400.0 mg/kg/injection, schedule: Q04DX003 (ip), vehicle: saline
# [6] = T/C endpoint: mean survival time, dose: 200.0 mg/kg/injection, schedule: Q04DX002 (ip), vehicle: saline
# [7] = T/C endpoint: mean survival time, dose: 400.0 mg/kg/injection, schedule: Q04DX002 (ip), vehicle: saline
# [8] = T/C endpoint: mean survival time, dose: 400.0 mg/kg/injection, schedule: Q04DX002 (ip), vehicle: Klucel (hydroxypropylcellulose) (HPC)
# [9] = T/C endpoint: mean survival time, dose: 200.0 mg/kg/injection, schedule: Q04DX002 (ip), vehicle: Klucel (hydroxypropylcellulose) (HPC)
structure (smiles),measurement,setting,value
Cc1nc(Cl)c(C#N)nc1C,survivor count,"T/C endpoint: mean survival time, dose: 400.0 mg/kg/injection, schedule: Q04DX003 (ip), vehicle: saline with Tween-80",5 of 6
COc1ccc(C2c3cc4c(c(OC)c3CC3OCC(=O)C32)OCO4)cc1OC (configuration not stated),survivor count,"T/C endpoint: median survival time, dose: 200.0 mg/kg/injection, schedule: Q01DX009 (ip), vehicle: Klucel (hydroxypropylcellulose) (HPC)",7 of 8
O=c1c(CCO)c(C2CC2)n2n1CCCC2,survivor count,"T/C endpoint: mean survival time, dose: 37.5 mg/kg/injection, schedule: Q01DX001 (ip), vehicle: other",0 of 6
same,survivor count,"T/C endpoint: mean survival time, dose: 75.0 mg/kg/injection, schedule: Q01DX001 (ip), vehicle: other",0 of 6
same,survivor count,"T/C endpoint: mean survival time, dose: 150.0 mg/kg/injection, schedule: Q01DX001 (ip), vehicle: other",0 of 6
same,survivor count,"T/C endpoint: mean survival time, dose: 300.0 mg/kg/injection, schedule: Q01DX001 (ip), vehicle: other",0 of 6
Cc1c([N+](=O)[O-])cc(C(=O)Cl)cc1[N+](=O)[O-],survivor count,"T/C endpoint: mean survival time, dose: 400.0 mg/kg/injection, schedule: Q04DX003 (ip), vehicle: other",0 of 6
CCCCCCCCCCCCCCCC[N+](C)(C)c1nc(Cl)nc(Cl)n1,survivor count,"T/C endpoint: mean survival time, dose: 150.0 mg/kg/injection, schedule: Q04DX003 (ip), vehicle: saline",3 of 6
same,survivor count,"T/C endpoint: mean survival time, dose: 200.0 mg/kg/injection, schedule: Q01DX001 (ip), vehicle: water",1 of 4
same,survivor count,"T/C endpoint: mean survival time, dose: 300.0 mg/kg/injection, schedule: Q04DX003 (ip), vehicle: saline",0 of 6
same,survivor count,"T/C endpoint: mean survival time, dose: 400.0 mg/kg/injection, schedule: Q01DX001 (ip), vehicle: water",0 of 4
Nc1cccc(CCC(=O)Nc2cccnc2)c1,survivor count,"T/C endpoint: mean survival time, dose: 100.0 mg/kg/injection, schedule: Q01DX001 (ip), vehicle: Klucel (hydroxypropylcellulose) (HPC)",3 of 6
same,survivor count,"T/C endpoint: mean survival time, dose: 200.0 mg/kg/injection, schedule: Q01DX001 (ip), vehicle: Klucel (hydroxypropylcellulose) (HPC)",1 of 6
same,survivor count,"T/C endpoint: mean survival time, dose: 400.0 mg/kg/injection, schedule: Q01DX001 (ip), vehicle: Klucel (hydroxypropylcellulose) (HPC)",0 of 6
CCSc1nc(Cl)cc(Sc2nc(N)nc3nc[nH]c23)n1,T/C,"T/C endpoint: mean survival time, dose: 29.0 mg/kg/injection, schedule: Q01DX001 (ip), vehicle: saline",128 % of control
same,T/C,"T/C endpoint: mean survival time, dose: 40.0 mg/kg/injection, schedule: Q01DX009 (ip), vehicle: saline",128 % of control
same,T/C,"T/C endpoint: mean survival time, dose: 60.0 mg/kg/injection, schedule: Q04DX003 (ip), vehicle: saline",126 % of control
same,T/C,"T/C endpoint: mean survival time, dose: 66.0 mg/kg/injection, schedule: Q01DX001 (ip), vehicle: saline",128 % of control
same,T/C,"T/C endpoint: mean survival time, dose: 75.0 mg/kg/injection, schedule: Q01DX009 (ip), vehicle: saline",129 % of control
same,T/C,"T/C endpoint: mean survival time, dose: 100.0 mg/kg/injection, schedule: Q01DX001 (ip), vehicle: saline","117, 121, 127, 145 % of control"
same,T/C,"T/C endpoint: mean survival time, dose: 100.0 mg/kg/injection, schedule: Q04DX003 (ip), vehicle: saline",140 % of control
same,T/C,"T/C endpoint: mean survival time, dose: 132.0 mg/kg/injection, schedule: Q04DX003 (ip), vehicle: Klucel (hydroxypropylcellulose) (HPC)",137 % of control
same,T/C,[1],131 % of control
same,T/C,[2],149 % of control
same,T/C,"T/C endpoint: mean survival time, dose: 200.0 mg/kg/injection, schedule: Q01DX Z (ip), vehicle: carboxymethylcellulose (CMC)",147 % of control
same,T/C,[3],147 % of control
same,survivor count,"T/C endpoint: mean survival time, dose: 400.0 mg/kg/injection, schedule: Q01DX001 (ip), vehicle: saline",6 of 6
same,T/C,"T/C endpoint: mean survival time, dose: 400.0 mg/kg/injection, schedule: Q01DX Z (ip), vehicle: carboxymethylcellulose (CMC)",140 % of control
same,T/C,"T/C endpoint: mean survival time, dose: 540.0 mg/kg/injection, schedule: Q01DX001 (ip), vehicle: saline",145 % of control
same,T/C,"T/C endpoint: mean survival time, dose: 540.0 mg/kg/injection, schedule: Q04DX003 (ip), vehicle: saline",134 % of control
N=C(N)SCc1csc(N)n1,survivor count,[3],1 of 6
same,survivor count,[4],0 of 6
same,survivor count,[5],0 of 6
O=C1c2ccccc2-c2ccccc2C1(Cl)Cl,survivor count,[1],3 of 6
same,survivor count,"T/C endpoint: mean survival time, dose: 300.0 mg/kg/injection, schedule: Q01DX001 (ip), vehicle: saline",0 of 6
CC(O)C#CC(C)O (configuration not stated),survivor count,"T/C endpoint: mean survival time, dose: 100.0 mg/kg/injection, schedule: Q04DX003 (ip), vehicle: Klucel (hydroxypropylcellulose) (HPC)",3 of 6
same,survivor count,"T/C endpoint: mean survival time, dose: 200.0 mg/kg/injection, schedule: Q04DX003 (ip), vehicle: Klucel (hydroxypropylcellulose) (HPC)",1 of 6
same,survivor count,"T/C endpoint: mean survival time, dose: 400.0 mg/kg/injection, schedule: Q04DX003 (ip), vehicle: Klucel (hydroxypropylcellulose) (HPC)",0 of 6
Nc1ncnc(N)c1NC(=O)c1ccc(-c2ccccc2)cc1,survivor count,"T/C endpoint: mean survival time, dose: 200.0 mg/kg/injection, schedule: Q04DX003 (ip), vehicle: saline with Tween-80",6 of 6
CC1CN=C(c2ccc(NC(=O)NCCCNC(=O)Nc3ccc(C4=NCC(C)N4)cc3)cc2)N1 (configuration not stated),T/C,"T/C endpoint: mean survival time, dose: 15.0 mg/kg/injection, schedule: Q01DX015 (ip), vehicle: methylcellulose (MC)",125 % of control
same,survivor count,"T/C endpoint: mean survival time, dose: 60.0 mg/kg/injection, schedule: Q01DX015 (ip), vehicle: methylcellulose (MC)",0 of 6
same,survivor count,"T/C endpoint: mean survival time, dose: 120.0 mg/kg/injection, schedule: Q01DX015 (ip), vehicle: methylcellulose (MC)",0 of 6
C[CH2][Ge]1([CH2]C)[CH2]CC2(C[CH2]1)CN(CCCN(C)C)CN2,survivor count,[6],0 of 3
same,survivor count,[7],0 of 3
CC(C)c1ccc(/C=N/NC(=O)c2ccncc2)cc1,survivor count,[2],2 of 6
same,survivor count,[4],0 of 6
Cc1noc(NC(=O)Nc2ccccc2C(F)(F)F)c1C,survivor count,"T/C endpoint: mean survival time, dose: 400.0 mg/kg/injection, schedule: Q01DX009 (ip), vehicle: Klucel (hydroxypropylcellulose) (HPC)",3 of 3
Cc1ccc(NC(=O)c2ccc(C(=O)Nc3ccc(C)cc3)cc2)cc1,survivor count,"T/C endpoint: mean survival time, dose: 112.0 mg/kg/injection, schedule: Q01DX Z (ip), vehicle: carboxymethylcellulose (CMC)",6 of 6
same,survivor count,"T/C endpoint: mean survival time, dose: 450.0 mg/kg/injection, schedule: Q01DX Z (ip), vehicle: carboxymethylcellulose (CMC)",6 of 6
CCNC(=O)Nc1ccccc1,survivor count,[8],1 of 3
Cc1ccc(S(=O)(=O)[O][Pb]([CH3])([CH3])[CH3])cc1,survivor count,"T/C endpoint: mean survival time, dose: 12.5 mg/kg/injection, schedule: Q01DX009 (ip), vehicle: saline",5 of 6
same,survivor count,"T/C endpoint: mean survival time, dose: 100.0 mg/kg/injection, schedule: Q04DX002 (ip), vehicle: saline",0 of 3
same,survivor count,[6],0 of 3
same,survivor count,[7],0 of 3
CN=C(c1ccc(NC(=O)c2ccc(C(=O)Nc3ccc(C(=NC)N4CCOCC4)cc3)cc2)cc1)N1CCOCC1,survivor count,"T/C endpoint: mean survival time, dose: 30.0 mg/kg/injection, schedule: Q01DX Z (ip), vehicle: carboxymethylcellulose (CMC)",1 of 6
same,survivor count,"T/C endpoint: mean survival time, dose: 60.0 mg/kg/injection, schedule: Q01DX Z (ip), vehicle: carboxymethylcellulose (CMC)",0 of 6
same,survivor count,"T/C endpoint: mean survival time, dose: 120.0 mg/kg/injection, schedule: Q01DX Z (ip), vehicle: carboxymethylcellulose (CMC)",0 of 6
Cc1c([N+](=O)[O-])cc(C(C)(C)C)c(OC(=O)C(C)(C)C)c1[N+](=O)[O-],survivor count,"T/C endpoint: mean survival time, dose: 100.0 mg/kg/injection, schedule: Q04DX002 (ip), vehicle: Klucel (hydroxypropylcellulose) (HPC)",2 of 3
same,survivor count,[9],1 of 3
same,survivor count,[8],0 of 3
CN(N=O)C(=O)NC1CCOCC1,T/C,"T/C endpoint: mean survival time, dose: 375.0 mg/kg/injection, schedule: Q01DX001 (ip), vehicle: saline",126 % of control
same,survivor count,"T/C endpoint: mean survival time, dose: 1000.0 mg/kg/injection, schedule: Q01DX001 (ip), vehicle: saline",4 of 10
OCC1OC(n2cnc3c(NCCNc4ncnc5c4ncn5C4OC(CO)C(O)C4O)ncnc32)C(O)C1O (configuration not stated),survivor count,[6],1 of 4
NC(c1ccccc1)c1ccccc1,survivor count,[5],0 of 6
Cc1cccc(CN=C(N)CSS(=O)(=O)O)n1,survivor count,"T/C endpoint: mean survival time, dose: 100.0 mg/kg/injection, schedule: Q01DX009 (ip), vehicle: Klucel (hydroxypropylcellulose) (HPC)",0 of 3
same,survivor count,[9],0 of 3
same,survivor count,[8],0 of 3
